# Laboratory results as given in PubChem BioAssay AID504832 (National Center for Advancing Translational Sciences (NCATS), 2011).
# The campaign covered roughly 310,000 compounds. About 18,000 (5.8%) were called active. Listed are the inconclusive results; actives and inactives stand elsewhere. Calls follow the shape of the dose curve; as a rule, active = well fitted inhibition curve with a large enough effect; inconclusive = small, poorly fitted or top-dose-only effect, or another doubt; inactive = no such curve, though single readings can be large or run the other way.
# Assay: Primary qHTS for delayed death inhibitors of the malarial parasite plastid, 48 hour incubation
# Settings: P. falciparum luciferase growth in erythrocytes
# Description: The goal of this screen is to discover new antimalarial compounds that act by inhibiting the development of the apicoplast in the malarial parasite Plasmodium falciparum. The biochemical processes that make this organelle essential for erythrocytic stage parasites are not well understood. However, antibiotics such as azithromycin and tetracycline, which target the apicoplast translational machinery, have a potent antimalarial effect.
# We have developed a cell-based assay that measures parasite growth based on the expression of an integrated copy of a firefly luciferase reporter. To detect small molecules that cause this "delayed death" phenotype, erythrocytes infected with the luciferase-expressing parasites were incubated with compounds for either one or two generations, corresponding to 48 and 96 hours, respectively. […] Growth inhibition is detected by a decrease in luciferase activity. […]
# Four microliters of culture medium (RPMI 1640 with 0.5% w/v Albumax (GIBCO), 24 mM sodium bicarbonate and 10 ug/mL gentamycin) were dispensed by a Multi-drop Combi into white solid 1536-well plates (Grenier) and 23 nL compound was added by a pin tool. […] Two microliters of luciferase detection reagent was added and luminescence was detected by a ViewLux (PerkinElmer) reader.
# Potency is read from the fitted curve at half-maximal effect.
row,Compound,Potency
1,O=C(OC1CN2CCC1CC2)C1c2ccccc2C=Cc2ccccc21 (stereo unspecified),inconclusive: 11.7 µM
